No constants are given. Whether binding was seen depends on the method and setting. In cells and extracts the contact can be indirect. Some binding calls cover weakened binding; strength is not graded here.

Amino acid sequences for entries named in this document (tags omitted).
UniProt Q14676: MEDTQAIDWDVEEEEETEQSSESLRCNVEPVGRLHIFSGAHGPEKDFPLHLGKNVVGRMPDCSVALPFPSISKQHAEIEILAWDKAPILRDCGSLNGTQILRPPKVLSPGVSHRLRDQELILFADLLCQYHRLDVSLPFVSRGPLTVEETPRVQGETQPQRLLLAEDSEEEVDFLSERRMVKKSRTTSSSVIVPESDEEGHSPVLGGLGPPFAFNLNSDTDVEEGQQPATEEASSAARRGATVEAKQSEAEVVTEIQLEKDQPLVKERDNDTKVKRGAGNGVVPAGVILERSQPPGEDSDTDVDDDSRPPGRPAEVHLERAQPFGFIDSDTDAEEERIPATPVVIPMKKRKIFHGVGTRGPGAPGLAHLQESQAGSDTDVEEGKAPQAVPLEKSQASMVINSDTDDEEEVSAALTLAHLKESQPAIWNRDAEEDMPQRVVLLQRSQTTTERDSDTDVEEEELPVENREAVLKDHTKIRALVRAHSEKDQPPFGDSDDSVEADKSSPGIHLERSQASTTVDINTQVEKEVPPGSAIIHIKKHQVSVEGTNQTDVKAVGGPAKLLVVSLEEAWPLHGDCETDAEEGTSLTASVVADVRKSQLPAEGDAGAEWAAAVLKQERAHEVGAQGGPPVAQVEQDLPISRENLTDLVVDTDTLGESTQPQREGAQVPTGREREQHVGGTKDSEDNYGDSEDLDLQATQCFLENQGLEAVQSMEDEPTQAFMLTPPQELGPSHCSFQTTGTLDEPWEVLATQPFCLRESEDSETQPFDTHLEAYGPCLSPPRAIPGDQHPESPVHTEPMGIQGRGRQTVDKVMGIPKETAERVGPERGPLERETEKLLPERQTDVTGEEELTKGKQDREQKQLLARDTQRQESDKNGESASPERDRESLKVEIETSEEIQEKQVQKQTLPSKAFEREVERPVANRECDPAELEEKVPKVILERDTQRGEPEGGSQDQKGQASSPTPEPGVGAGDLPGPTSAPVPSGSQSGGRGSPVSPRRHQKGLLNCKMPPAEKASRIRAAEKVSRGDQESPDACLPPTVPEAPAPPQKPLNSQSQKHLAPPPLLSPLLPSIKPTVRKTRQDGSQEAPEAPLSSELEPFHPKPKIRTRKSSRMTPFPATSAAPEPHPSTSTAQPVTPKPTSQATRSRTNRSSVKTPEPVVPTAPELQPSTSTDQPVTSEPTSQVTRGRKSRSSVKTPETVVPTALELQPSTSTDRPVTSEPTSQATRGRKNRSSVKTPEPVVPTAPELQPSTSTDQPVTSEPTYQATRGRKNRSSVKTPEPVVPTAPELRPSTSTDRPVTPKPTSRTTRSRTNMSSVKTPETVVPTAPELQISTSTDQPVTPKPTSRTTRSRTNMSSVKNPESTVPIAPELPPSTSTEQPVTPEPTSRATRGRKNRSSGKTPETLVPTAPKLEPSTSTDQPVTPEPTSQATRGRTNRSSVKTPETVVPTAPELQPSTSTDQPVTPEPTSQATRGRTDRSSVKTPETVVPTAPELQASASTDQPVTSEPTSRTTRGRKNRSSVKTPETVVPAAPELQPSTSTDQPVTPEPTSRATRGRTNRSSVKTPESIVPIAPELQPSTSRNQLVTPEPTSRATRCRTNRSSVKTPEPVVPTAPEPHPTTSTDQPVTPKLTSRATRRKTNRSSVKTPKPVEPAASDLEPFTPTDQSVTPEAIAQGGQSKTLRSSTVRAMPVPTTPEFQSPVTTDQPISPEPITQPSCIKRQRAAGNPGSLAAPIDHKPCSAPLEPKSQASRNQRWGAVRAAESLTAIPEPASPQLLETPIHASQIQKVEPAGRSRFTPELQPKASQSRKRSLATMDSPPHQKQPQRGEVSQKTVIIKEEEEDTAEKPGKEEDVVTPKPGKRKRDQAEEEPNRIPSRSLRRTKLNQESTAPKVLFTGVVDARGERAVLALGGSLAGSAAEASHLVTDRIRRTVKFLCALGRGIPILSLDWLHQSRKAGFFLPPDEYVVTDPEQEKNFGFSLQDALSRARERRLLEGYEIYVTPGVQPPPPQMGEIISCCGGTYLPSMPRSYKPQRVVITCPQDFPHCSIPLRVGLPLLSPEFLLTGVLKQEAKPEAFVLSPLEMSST

These results are taken from publication PMC3806821.

The target of assay [1] is p53 fused to a HA-tag (HA-p53), overexpressed in 293T cells (human) (UniProt P04637). The assay is described as follows: co-IP; 293T cells overexpressing HA-p53, untreated (no NCS); IP with anti-HA antibodies, blot for endogenous MDC1.
Assay [2] has as its target p53 CTD peptide (a.a. 361-393) containing both Ac-K382 and pS392, biotin-labeled (human) (UniProt P04637). Briefly: pull-down; peptide pull-down of endogenous MDC1 and p53 from nuclear HeLa extract; Western blot; only the target purified. In general terms: In western blotting, separated proteins are transferred to a membrane and probed.
Assay [3] concerns the target unmodified p53 CTD peptide (a.a. 361-393), biotin-labeled (human) (UniProt P04637). Described as above.
The target of assay [4] is p53 fused to a HA-tag (HA-p53), overexpressed in 293T cells (human) (UniProt P04637). The assay is described as follows: co-IP; 293T cells overexpressing HA-p53, treated with NCS, 1 hr incubation; IP with anti-HA antibodies, blot for endogenous MDC1; control IP with anti-GST antibodies.
Assay [5] deals with endogenous MDC1 (human (endogenous in 293T, 293 and HeLa)) (UniProt Q14676). The assay is described as follows: co-IP; extracts of 293 cells, 5 Gray ionizing radiation, 1 hr recovery; IP with antibodies against MDC1-tBRCT or MDC1-FHA, Western blot with anti-p53.

Take “endogenous MDC1 (from UniProt Q14676 1-2089)”: the binding entry is “no binding (condition: cells not treated with NCS)” in assay [1], “binds” in assay [2], “binds” in assay [3] and “binds” in assay [4].
Regarding “endogenous p53 (from UniProt P04637 1-393)”, the binding entry in assay [5] is “binds”.
